Data on two compounds can be found in US20230293482A1, “CENTRAL NERVOUS SYSTEM POTENTIATING COMPOSITION” (priority 2020, published 2023).

The structures appear in SMILES notation.

The data set can be described thus: In vitro hydrogen peroxide production, FOX assay. Format: physicochemical. To be noted: for produced amount of hydrogen peroxide at pH 7 compared with pH 3: FOX assay; for hydrogen peroxide production: pH 3.0 and pH 7.0, FOX assay.

As to `Oc1cc(O)c2c(c1)O[C@H](c1ccc(O)c(O)c1)[C@H](O)[C@H]2c1c(O)cc(O)c2c1O[C@H](c1ccc(O)c(O)c1)[C@H](O)C2` [dimer], the “produced amount of hydrogen peroxide at pH 7 compared with pH 3” value is “significantly increased” and the hydrogen peroxide production entry was “produced hydrogen peroxide”.

On to `Oc1cc(O)c2c(c1)O[C@H](c1ccc(O)c(O)c1)[C@H](O)[C@H]2c1c(O)cc(O)c2c1O[C@H](c1ccc(O)c(O)c1)[C@H](O)[C@H]2c1c(O)cc(O)c2c1O[C@H](c1ccc(O)c(O)c1)[C@H](O)C2` [trimer], for which the “produced amount of hydrogen peroxide at pH 7 compared with pH 3” value is “significantly increased” and the hydrogen peroxide production entry is given as “produced hydrogen peroxide”.
